From PMC7021685
No constants are given. Whether binding was seen depends on the method and setting. In cells and extracts the contact can be indirect. Some entries that bind do so weakly or less than the wild type.

Sequences of proteins named here, by UniProt entry; tags and fusion partners are left off.
UniProt P98170: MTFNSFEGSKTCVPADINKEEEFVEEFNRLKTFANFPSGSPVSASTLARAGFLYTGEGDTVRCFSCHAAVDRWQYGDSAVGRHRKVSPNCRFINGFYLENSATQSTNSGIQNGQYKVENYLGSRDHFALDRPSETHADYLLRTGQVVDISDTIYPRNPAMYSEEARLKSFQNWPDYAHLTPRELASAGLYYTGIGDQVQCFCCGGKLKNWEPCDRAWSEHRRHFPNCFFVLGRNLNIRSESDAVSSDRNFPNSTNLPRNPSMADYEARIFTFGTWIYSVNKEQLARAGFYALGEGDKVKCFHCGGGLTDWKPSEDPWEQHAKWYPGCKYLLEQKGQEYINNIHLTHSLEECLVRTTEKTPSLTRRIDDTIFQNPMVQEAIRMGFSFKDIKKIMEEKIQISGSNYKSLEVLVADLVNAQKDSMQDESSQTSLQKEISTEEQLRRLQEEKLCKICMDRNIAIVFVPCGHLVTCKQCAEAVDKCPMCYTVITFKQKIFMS
UniProt P00441: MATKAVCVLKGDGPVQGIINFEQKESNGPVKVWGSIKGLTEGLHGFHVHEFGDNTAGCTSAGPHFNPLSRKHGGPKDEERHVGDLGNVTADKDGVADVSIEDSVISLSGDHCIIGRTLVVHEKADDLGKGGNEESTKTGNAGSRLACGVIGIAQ

Legend:
[1] = target: X-linked inhibitor of apoptosis (XIAP) (human (endogenous in Ls174t)) (UniProt P98170); experiment: co-IP; lysates of the STEAP4-inducible Ls174t clone without STEAP4 induction; lysis buffer 1% Triton X-100, 50 mM Tris-HCl pH 7.4, 150 mM NaCl; antibody plus protein A/G Sepharose beads overnight at 4 °C; western blot
[2] = target: X-linked inhibitor of apoptosis (XIAP) (human (endogenous in Ls174t)) (UniProt P98170); experiment: co-IP; lysates of the STEAP4-inducible Ls174t clone with STEAP4 overexpression (doxycycline); lysis buffer 1% Triton X-100, 50 mM Tris-HCl pH 7.4, 150 mM NaCl; antibody plus protein A/G Sepharose beads overnight at 4 °C; western blot

Row | Molecule | binding [1] | binding [2]
1 | superoxide dismutase 1 (SOD1) (from UniProt P00441 1-154) | binds | no binding (condition: with STEAP4 overexpression)
2 | copper chaperone for superoxide dismutase (CCS) (protein, UniProt O14618 1-274) MASDSGNQGTLCTLEFAVQMTCQSCVDAVRKSLQGVAGVQDVEVHLEDQMVLVHTTLPSQEVQALLEGTGRQAVLKGMGSGQLQNLGAAVAILGGPGTVQGVVRFLQLTPERCLIEGTIDGLEPGLHGLHVHQYGDLTNNCNSCGNHFNPDGASHGGPQDSDRHRGDLGNVRADADGRAIFRMEDEQLKVWDVIGRSLIIDEGEDDLGRGGHPLSKITGNSGERLACGIIARSAGLFQNPKQICSCDGLTIWEERGRPIAGKGRKESAQPPAHL | binds | no binding (condition: with STEAP4 overexpression)
